Source: patent US20240374727A1
These are yes or no findings as the source states them, for the method shown. Some binding calls cover weakened binding; strength is not graded here.

Assays:
[1] = target: T1, human C-C Chemokine receptor 9 (CCR9) (human) (UniProt P51686); experiment: flow cytometry on wild-type P12-Ichikawa versus CCR9 knockout cells
T1 sequence: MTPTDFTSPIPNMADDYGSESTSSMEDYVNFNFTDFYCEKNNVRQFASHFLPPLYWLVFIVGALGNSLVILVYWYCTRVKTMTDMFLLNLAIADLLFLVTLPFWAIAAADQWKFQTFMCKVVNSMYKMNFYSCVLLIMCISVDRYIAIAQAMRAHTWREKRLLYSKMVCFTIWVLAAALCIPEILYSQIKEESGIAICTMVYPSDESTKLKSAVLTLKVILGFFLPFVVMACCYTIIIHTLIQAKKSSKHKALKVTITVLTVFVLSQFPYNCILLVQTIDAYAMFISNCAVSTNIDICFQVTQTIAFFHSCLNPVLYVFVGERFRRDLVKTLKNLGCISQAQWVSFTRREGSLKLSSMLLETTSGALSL

[2] = target: T1, human C-C Chemokine receptor 9 (CCR9) (human); experiment: flow cytometry on P12-Ichikawa cells

B1: 9G7 single chain variant fragment (scFv) (scFv)
scFv: QVQLKESGPGLVQPSQTLSLTCTVSGFSVASYDMHWVRLPPGKGLEWMGIIWANGNTHYNSGLKSRLSISRDTSKSQVFLKMNSLQTEDTAIYFCTRGGFAYWGQGTLVTVSASGGGGSGGGGSGGGGSDVVMTQTPVSLSVSLGGQVSISCRSSQSLVHNNGNTYLSWYLQKPGQSPQLLIYKVSNRFSGVSDRFSGSGSGTDFTLKISRVEPDDLGVYYCGQGTQYPTFGGGTKLELK
Question: Which binding [1] does the source give for B1 here?
Answer: binds

Question: And the binding [2]?
Answer: binds
